In all, about 320,000 compounds went through this assay and about 620 (0.19%) were called active. This list was built around the results that the source calls inconclusive (neither active nor inactive); the mix of calls is not that of the screen. Calls follow the shape of the dose curve; as a rule, active = well fitted activation curve with a large enough effect; inconclusive = small, poorly fitted or top-dose-only effect; inactive = no such curve, though single readings can be large or run the other way. A potency beside an inconclusive call is a rough fit, not a confirmed value.
assay: qHTS Assay for Identifying a Potential Treatment of Ataxia-Telangiectasia; details: […] A-T fibroblasts, KAP-1 phosphorylation AlphaLISA, neocarzinostatin DNA damage 30 min before lysis; series mostly up to 57.5 µM; also: nearly all actives have a fitted effect of over 45% in size
Procedure, shortened: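 hTERT-immortalized A-T patient fibroblasts ([…]), 500 cells/well in OPTI-MEM, 1% FBS, got compounds for 60 min, then NCS for 30 min at 37C. Lysates were then assayed for phospho-KAP-1 by AlphaLISA (anti-pKAP1 donor, anti-KAP1 acceptor beads), 6 hr at 25C.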
Potency is read from the fitted curve at half-maximal effect.

SMILES | Potency
Nc1cc2sc(-c3ccc(C(=O)O)cc3)nc2cc1Cl | inconclusive: 31.6 µM [activator, partial curve]
CC1=C(C(=O)NC2CCCC(C)C2C)C2(CCCCC2)OC1=O (stereo not given) | inconclusive: 44.7 µM [activator, partial curve, poor fit]
CC(C)(C)OC(=O)N[C@@H](Cc1ccccc1)c1nnc(SCC(N)=O)o1 | inactive
CCOc1ncccc1C(=O)OCc1c(F)cccc1Cl | inconclusive: 39.8 µM [activator, single point]
O=C(c1cccc(S(=O)(=O)N2CCCC2)c1)c1cccc(S(=O)(=O)N2CCCC2)c1 | inactive
O=c1c2ccccc2nc(SCc2ccccc2)n1CC1CCCO1 (stereo not given) | active: 14.1 µM
CN(CCN(C)C(C)(C)C)C(=O)C(c1ccccc1)c1ccccc1 | inconclusive: 39.8 µM [activator, partial curve, poor fit]
N#Cc1cc(N2CCOCC2)nc2ccccc12 | inconclusive: 39.8 µM [activator, partial curve]
C#CCOCCOCCOCCNc1nc(N2CCN(C(=O)[C@H](CCC(=O)O)n3cc(C(N)CO)nn3)CC2)nc(N2CCN(C(=O)[C@H](CCCCN)n3cc(C(N)CC(C)C)nn3)CC2)n1 (stereo not given in full) | active: 31.6 µM
Cc1cccn2c(=O)c3cc(C#N)c(=NC(=O)c4cccs4)n(CCCOC(C)C)c3nc12 | inactive
COc1ccc(-c2sc(C(=O)c3ccc(Cl)cc3Cl)cc2CC(=O)O)cc1 | inactive
Cc1ccc(NC(=O)CCn2c(=O)[nH]c3ccsc3c2=O)cc1C | inactive
CN(C)CCCNc1c2ccccc2nc2ccccc12 | inactive
CC1CCCC(C)N1/N=C/c1ccccc1Br (stereo not given) | inconclusive: 3.16 µM [activator, partial curve]
CC(C)(C)C1=CC=C(C(C)(C)C)C(=O)C1=O | inconclusive: 5.62 µM [activator, single point]
Cc1nn(Cc2ccccc2)c(C)c1/C=N/NC(=O)c1ccccc1O | active: 31.6 µM
COc1ccc2nc(NCCCNC(=O)c3cc(OC)c(OC)c(OC)c3)c(C#N)cc2c1 | inconclusive: 6.31 µM [activator, partial curve]
OC(COc1ccc(OCC(O)CN2CCCCC2)cc1)CN1CCCCC1 (stereo not given) | inconclusive: 31.6 µM [activator, partial curve]
COCCn1cnc2c(c1=O)c1nc3ccccc3nc1n2/N=C/c1cccc(OC)c1 | inconclusive: 39.8 µM [activator, single point]
O=C1C2C3C=CC(CC3)C2C(=O)N1c1cccc(Br)c1 (stereo not given) | inconclusive: 5.62 µM [activator, single point]

A different layout for two compounds above.
SMILES,Potency
Cc1ccc(NC(=O)CCn2c(=O)[nH]c3ccsc3c2=O)cc1C,inactive
CN(C)CCCNc1c2ccccc2nc2ccccc12,inactive

From PubChem BioAssay AID485349 (National Center for Advancing Translational Sciences (NCATS), 2010)
